The values that follow come from PubChem BioAssay AID272 (DTP/NCI, 2004).

Molecules are shown by their SMILES. “And” between values parts separate entries of the source, which are not always exact repeats. Equal entries are not always repeated. Inconclusive results are not listed.

This assay deals with Lewis lung carcinoma i.m., BDF1 mice, T/C %. Put plainly: NCI In Vivo Anticancer Drug Screen. Data for tumor model Lewis Lung Carcinoma (intramuscular) in B6D2F1 (BDF1) mice. Particulars: endpoint: median survival time, schedule: Q01DX011 (ip), vehicle: water, higher = longer survival. How it is done:
The antitumor activity of compounds was measured in mice bearing transplantable tumors. Survival or tumor size were measured and the results are expressed as the measurement made in the treated group (T) divided by the measurement made in the vehicle treated control group (C). The tumor model used in this assay is Lewis Lung Carcinoma (intramuscular) in B6D2F1 (BDF1) mice

On to `COc1cc2c(c(OC)c1OC)-c1ccc(OC)c(=O)cc1[C@@H](N)CC2`, for which the T/C (dose: 0.6 mg/kg/injection) is 101 % of control and 109 % of control; the T/C (dose: 1.2 mg/kg/injection) was 105 % of control and 115 % of control.
